Reference: the supplement of paper PMC10849652
The other results are listed elsewhere or left out.

Protein sequences, listed by entry. Tags and fused reporters are not part of them. Lines headed by an entry give the natural chain unless they say otherwise; changes in a name come on top.
UniProt Q15111: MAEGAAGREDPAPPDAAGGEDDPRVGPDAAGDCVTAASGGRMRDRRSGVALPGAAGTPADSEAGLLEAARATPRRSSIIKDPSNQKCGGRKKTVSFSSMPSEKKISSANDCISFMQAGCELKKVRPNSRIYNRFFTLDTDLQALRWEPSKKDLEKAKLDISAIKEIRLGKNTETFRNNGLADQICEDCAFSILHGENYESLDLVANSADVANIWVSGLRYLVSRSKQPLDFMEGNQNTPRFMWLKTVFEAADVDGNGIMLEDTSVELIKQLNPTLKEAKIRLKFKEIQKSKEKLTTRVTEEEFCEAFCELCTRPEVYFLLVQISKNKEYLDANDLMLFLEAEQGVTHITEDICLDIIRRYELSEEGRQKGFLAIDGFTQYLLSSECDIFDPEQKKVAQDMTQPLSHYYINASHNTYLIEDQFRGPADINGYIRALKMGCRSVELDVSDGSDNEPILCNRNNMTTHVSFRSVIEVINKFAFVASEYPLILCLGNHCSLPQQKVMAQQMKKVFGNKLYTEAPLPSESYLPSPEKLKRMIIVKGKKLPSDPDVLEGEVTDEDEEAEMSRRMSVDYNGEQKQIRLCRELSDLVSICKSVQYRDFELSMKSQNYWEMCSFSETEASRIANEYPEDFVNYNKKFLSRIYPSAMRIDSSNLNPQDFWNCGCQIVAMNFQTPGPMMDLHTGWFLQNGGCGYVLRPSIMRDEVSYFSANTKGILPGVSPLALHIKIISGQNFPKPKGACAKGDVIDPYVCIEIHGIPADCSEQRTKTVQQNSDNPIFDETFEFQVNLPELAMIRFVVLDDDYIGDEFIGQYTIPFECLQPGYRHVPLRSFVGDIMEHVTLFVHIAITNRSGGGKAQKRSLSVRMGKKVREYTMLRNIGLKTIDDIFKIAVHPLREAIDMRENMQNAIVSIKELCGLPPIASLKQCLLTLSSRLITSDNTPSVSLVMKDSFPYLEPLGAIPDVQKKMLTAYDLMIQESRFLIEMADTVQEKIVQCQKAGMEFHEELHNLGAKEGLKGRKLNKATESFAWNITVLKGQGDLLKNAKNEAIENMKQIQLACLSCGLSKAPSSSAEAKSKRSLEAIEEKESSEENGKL
UniProt Q9P1Y6: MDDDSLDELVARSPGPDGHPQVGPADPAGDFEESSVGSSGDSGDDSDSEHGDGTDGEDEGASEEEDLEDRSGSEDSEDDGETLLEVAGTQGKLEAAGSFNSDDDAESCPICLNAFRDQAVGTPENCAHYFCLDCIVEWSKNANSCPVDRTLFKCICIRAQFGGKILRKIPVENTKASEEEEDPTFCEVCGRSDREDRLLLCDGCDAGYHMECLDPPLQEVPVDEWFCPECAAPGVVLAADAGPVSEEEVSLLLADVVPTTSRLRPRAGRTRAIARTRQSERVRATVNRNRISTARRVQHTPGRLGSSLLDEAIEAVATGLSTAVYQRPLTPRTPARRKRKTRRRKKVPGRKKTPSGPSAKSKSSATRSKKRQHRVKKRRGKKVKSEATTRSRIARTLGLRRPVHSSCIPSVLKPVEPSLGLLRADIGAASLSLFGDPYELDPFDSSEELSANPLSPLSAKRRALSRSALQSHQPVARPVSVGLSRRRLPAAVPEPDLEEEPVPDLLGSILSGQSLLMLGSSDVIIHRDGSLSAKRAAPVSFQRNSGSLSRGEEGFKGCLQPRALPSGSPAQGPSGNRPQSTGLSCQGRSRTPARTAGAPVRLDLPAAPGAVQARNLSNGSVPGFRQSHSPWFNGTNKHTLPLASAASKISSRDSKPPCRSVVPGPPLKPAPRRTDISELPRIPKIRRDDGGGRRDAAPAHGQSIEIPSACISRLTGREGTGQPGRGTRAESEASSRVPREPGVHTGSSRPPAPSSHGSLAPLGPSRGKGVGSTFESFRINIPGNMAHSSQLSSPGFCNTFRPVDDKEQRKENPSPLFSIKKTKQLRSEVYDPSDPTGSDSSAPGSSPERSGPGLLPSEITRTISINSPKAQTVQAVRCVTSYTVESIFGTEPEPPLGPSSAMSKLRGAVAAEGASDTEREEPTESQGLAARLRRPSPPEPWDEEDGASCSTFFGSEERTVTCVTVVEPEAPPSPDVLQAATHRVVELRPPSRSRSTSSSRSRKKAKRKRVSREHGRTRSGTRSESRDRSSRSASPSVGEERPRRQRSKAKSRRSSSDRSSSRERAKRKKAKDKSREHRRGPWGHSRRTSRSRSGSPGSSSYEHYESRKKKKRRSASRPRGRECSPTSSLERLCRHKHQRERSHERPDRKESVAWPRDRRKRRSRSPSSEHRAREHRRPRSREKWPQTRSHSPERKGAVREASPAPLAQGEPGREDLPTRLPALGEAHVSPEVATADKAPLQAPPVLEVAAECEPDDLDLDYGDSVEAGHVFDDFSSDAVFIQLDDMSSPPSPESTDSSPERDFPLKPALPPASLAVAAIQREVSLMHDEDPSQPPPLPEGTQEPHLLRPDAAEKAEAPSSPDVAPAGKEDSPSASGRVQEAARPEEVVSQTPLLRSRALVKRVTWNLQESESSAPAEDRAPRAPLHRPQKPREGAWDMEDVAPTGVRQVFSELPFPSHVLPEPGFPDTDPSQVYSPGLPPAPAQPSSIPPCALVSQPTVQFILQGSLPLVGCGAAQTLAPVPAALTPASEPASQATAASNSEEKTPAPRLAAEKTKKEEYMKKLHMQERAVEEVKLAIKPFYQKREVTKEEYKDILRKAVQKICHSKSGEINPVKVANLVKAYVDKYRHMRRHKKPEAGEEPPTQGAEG
UniProt Q9NWS0, whole entry, looked up: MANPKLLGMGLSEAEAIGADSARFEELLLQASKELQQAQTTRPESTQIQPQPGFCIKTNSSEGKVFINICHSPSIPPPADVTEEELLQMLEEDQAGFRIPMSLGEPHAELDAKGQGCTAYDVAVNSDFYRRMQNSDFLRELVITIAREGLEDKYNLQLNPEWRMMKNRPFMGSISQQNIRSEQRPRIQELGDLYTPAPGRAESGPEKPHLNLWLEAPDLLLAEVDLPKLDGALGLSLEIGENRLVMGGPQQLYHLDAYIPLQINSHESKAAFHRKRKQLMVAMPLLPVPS
UniProt O95394: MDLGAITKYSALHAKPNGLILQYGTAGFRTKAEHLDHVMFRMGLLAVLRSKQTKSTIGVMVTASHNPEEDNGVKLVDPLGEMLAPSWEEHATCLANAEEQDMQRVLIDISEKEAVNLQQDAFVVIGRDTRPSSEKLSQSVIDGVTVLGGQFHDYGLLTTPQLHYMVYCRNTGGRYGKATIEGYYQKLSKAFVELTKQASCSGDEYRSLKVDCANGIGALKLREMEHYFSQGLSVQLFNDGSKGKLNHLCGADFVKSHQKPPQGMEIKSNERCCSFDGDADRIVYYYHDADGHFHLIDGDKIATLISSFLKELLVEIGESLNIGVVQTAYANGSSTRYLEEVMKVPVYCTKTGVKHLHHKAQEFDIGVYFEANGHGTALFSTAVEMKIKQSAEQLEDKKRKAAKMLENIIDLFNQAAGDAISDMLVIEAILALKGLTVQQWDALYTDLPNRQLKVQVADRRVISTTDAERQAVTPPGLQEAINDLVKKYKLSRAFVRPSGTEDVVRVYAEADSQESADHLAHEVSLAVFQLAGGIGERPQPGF
UniProt P12273: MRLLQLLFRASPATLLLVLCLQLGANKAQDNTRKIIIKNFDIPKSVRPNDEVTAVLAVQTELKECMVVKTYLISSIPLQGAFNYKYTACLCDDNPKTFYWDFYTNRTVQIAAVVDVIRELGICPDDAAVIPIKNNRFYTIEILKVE
UniProt O43164: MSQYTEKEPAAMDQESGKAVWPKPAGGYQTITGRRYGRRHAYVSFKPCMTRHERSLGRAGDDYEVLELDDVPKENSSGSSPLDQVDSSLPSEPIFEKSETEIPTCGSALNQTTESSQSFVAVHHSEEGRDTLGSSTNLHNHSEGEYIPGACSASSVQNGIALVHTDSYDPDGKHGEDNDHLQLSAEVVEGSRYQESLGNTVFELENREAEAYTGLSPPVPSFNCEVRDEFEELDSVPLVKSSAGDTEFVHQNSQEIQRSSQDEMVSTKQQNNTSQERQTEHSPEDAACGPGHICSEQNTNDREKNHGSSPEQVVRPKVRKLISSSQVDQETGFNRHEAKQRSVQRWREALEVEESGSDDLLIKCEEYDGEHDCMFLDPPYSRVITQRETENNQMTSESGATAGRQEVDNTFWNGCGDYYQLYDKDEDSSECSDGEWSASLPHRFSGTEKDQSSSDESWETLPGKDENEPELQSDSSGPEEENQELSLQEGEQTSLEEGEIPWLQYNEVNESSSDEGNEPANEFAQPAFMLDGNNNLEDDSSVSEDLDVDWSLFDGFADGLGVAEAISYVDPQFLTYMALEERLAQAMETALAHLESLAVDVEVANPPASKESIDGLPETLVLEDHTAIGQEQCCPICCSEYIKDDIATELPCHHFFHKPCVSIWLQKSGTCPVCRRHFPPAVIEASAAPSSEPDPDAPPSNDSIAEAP
UniProt P51178: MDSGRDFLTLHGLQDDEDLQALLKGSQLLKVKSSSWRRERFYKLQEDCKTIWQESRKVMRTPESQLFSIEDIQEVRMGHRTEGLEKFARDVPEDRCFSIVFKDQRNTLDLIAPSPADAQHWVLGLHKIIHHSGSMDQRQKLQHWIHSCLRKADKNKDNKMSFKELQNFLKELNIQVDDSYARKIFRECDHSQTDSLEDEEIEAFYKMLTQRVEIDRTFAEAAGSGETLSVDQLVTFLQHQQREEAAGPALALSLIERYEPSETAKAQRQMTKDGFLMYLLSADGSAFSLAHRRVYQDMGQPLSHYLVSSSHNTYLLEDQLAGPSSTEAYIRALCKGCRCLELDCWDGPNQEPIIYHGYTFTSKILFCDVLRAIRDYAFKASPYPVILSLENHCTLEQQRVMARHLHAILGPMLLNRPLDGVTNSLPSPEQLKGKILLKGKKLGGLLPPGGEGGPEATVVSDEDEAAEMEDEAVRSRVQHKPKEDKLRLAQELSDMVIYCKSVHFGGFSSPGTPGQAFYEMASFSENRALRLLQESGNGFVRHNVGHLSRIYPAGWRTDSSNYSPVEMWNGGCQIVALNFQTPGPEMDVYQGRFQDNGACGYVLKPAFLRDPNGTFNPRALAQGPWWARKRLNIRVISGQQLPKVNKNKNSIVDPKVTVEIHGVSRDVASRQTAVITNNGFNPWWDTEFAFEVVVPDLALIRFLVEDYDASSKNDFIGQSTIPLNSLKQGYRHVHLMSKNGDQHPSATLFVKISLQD
UniProt Q8NHP8: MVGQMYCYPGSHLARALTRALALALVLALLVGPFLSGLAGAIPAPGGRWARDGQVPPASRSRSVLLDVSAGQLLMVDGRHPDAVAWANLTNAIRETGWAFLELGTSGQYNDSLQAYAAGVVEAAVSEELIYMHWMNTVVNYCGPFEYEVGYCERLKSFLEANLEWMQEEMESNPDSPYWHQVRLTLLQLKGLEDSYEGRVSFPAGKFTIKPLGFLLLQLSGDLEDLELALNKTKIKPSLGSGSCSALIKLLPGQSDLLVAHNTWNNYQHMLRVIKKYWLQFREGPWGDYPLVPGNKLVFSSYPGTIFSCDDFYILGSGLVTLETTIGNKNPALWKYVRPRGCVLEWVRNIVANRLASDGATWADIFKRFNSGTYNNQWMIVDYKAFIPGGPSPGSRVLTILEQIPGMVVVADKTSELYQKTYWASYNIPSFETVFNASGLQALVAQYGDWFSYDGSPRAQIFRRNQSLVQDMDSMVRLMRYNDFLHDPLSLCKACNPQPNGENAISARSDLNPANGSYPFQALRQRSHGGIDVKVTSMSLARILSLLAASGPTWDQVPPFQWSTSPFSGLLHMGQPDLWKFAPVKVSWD
UniProt Q00169: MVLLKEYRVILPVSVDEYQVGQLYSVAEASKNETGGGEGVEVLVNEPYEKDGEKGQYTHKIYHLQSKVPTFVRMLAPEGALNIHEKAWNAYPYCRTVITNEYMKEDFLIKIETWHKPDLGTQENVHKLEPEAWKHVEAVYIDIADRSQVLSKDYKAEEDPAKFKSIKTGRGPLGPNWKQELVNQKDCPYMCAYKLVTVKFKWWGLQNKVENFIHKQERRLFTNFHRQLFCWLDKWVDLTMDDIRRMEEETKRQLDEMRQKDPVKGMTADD
UniProt P37287: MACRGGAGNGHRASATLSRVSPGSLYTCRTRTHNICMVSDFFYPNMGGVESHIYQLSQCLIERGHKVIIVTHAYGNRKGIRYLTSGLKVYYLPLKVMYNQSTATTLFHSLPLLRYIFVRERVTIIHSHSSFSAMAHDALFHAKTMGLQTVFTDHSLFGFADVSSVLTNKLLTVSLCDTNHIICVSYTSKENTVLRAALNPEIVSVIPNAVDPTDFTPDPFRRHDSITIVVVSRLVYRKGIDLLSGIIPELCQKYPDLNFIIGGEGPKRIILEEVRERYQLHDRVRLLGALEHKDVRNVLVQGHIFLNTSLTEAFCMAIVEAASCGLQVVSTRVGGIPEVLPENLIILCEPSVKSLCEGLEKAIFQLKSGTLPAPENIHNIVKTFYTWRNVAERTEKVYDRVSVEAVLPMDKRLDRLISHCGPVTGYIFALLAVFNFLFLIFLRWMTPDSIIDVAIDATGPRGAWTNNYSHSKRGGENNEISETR

What was measured:
Assay in all cases: log2 fold change, soluble protein after heating vs DMSO (PISA); higher = thermal stabilisation; K562 lysate, 10 uM; active = over 0.2 and 3.5 SD of the protein, either way, in both replicates (recomputed)
[1] = compound: NCC(=O)Nc1ccc(-n2nc(C(F)(F)F)cc2-c2ccc3c(ccc4ccccc43)c2)cc1
In short: (§1)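 Pellets of K562 cells were dounce-homogenised in PBS pH 7.4 with 1 mM MgCl2, and the crude extract was held at 1 mg/mL protein for a 30 min treatment with 10 μM compound. Aliquots were heated for 3 min over 48°C-58°C and pooled before NP-40 was added to 0.5% at 4°C. The supernatant from 21,000xg for 90 min was quantified by TMTpro 16plex LC-MS/MS with channel sums equalised. Values are reported from duplicates as log-two fold change in thermal stability relative to solvent controls.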

vorinostat = compound: O=C(CCCCCCC(=O)Nc1ccccc1)NO [vorinostat]
In short: as §1

silmitasertib = compound: O=C(O)c1ccc2c(c1)nc(Nc1cccc(Cl)c1)c1ccncc12 [silmitasertib]
In short: as §1

[2] = compound: O=C1NC(=O)C(c2cnc3ccccn23)=C1c1cn2c3c(cc(F)cc13)CN(C(=O)N1CCCCC1)CC2
In short: as §1

entospletinib = compound: c1cn2cc(-c3ccc4cn[nH]c4c3)nc(Nc3ccc(N4CCOCC4)cc3)c2n1 [entospletinib]
In short: as §1

Measured: log2 fold change

PHF3 (UniProt Q92576)
inactive: [1] 0.027 | vorinostat 0.015 | silmitasertib -0.01 | [2] 0.012 | entospletinib -0.041

PLCL1 (UniProt Q15111)
inactive: [1] 0.07 | vorinostat -0.101 | silmitasertib 0.011 | [2] -0.017 | entospletinib -0.015

PHRF1 (UniProt Q9P1Y6)
inactive: [1] 0.082 | vorinostat -0.068 | silmitasertib -0.194 | [2] 0.072 | entospletinib -0.025

PHKA1 (UniProt P46020)
active: vorinostat -0.223
inactive: [1] 0.002 | silmitasertib 0.184 | [2] -0.001 | entospletinib -0.01

PICALM (UniProt Q13492)
inactive: [1] 0.02 | vorinostat 0.048 | silmitasertib 0.003 | [2] -0.019 | entospletinib -0.005

PIAS2 (UniProt O75928)
active: [1] 0.469 | vorinostat -0.334
inactive: silmitasertib -0.091 | [2] -0.054 | entospletinib 0.01

PIP4K2A (UniProt P48426)
inactive: [1] 0.027 | vorinostat 0.024 | silmitasertib 0.225 | [2] 0.007 | entospletinib -0.029

PLA2G15 (UniProt Q8NCC3)
inactive: [1] -0.002 | vorinostat -0.021 | silmitasertib -0.018 | [2] -0.016 | entospletinib -0.012

PIH1D1 (UniProt Q9NWS0)
inactive: [1] -0.027 | vorinostat 0.032 | silmitasertib 0.012 | [2] 0.01 | entospletinib 0

PHKB isoform 3 (UniProt Q93100)
inactive: [1] -0.023 | silmitasertib 0.07 | [2] 0.016 | entospletinib 0.023
active: vorinostat -0.288

PGM2 (UniProt Q96G03)
inactive: [1] -0.004 | vorinostat 0.141 | silmitasertib -0.018 | [2] 0.006 | entospletinib 0.027

PHB (UniProt P35232)
inactive: [1] -0.13 | vorinostat 0.126 | silmitasertib 0.076 | [2] -0.04 | entospletinib 0.007

PGM3 isoform 4 (UniProt O95394)
inactive: [1] -0.039 | vorinostat -0.078 | silmitasertib 0.03 | [2] -0.049 | entospletinib 0.032

PIP (UniProt P12273)
inactive: [1] -0.067 | vorinostat 0.243 | silmitasertib -0.483 | [2] 0.348 | entospletinib -0.238

PJA2 (UniProt O43164)
inactive: [1] 0.073 | vorinostat -0.115 | silmitasertib 0.008 | [2] -0.012 | entospletinib 0.005

PGP (UniProt A6NDG6)
inactive: [1] 0 | vorinostat 0.131 | silmitasertib -0.015 | [2] 0.02 | entospletinib 0.034

PLCD1 isoform 2 (UniProt P51178)
inactive: [1] 0.018 | vorinostat -0.119 | silmitasertib 0.025 | [2] -0.01 | entospletinib -0.043

PIK3R1 (UniProt P27986)
inactive: [1] -0.035 | vorinostat -0.206 | silmitasertib 0.213 | [2] 0.022 | entospletinib 0.03

PISD (UniProt Q9UG56)
inactive: [1] -0.031 | vorinostat 0.113 | silmitasertib 0.067 | [2] 0.15 | entospletinib -0.043

PLBD2 (UniProt Q8NHP8)
inactive: [1] 0.014 | vorinostat 0.132 | silmitasertib -0.008 | [2] -0.048 | entospletinib -0.084

PHKA2 (UniProt P46019)
active: vorinostat -0.29
inactive: [1] 0.017 | silmitasertib 0.105 | [2] -0.048 | entospletinib -0.012

PIGO (UniProt Q8TEQ8)
inactive: [1] -0.156 | vorinostat 0.15 | silmitasertib 0.18 | [2] 0.121 | entospletinib -0.015

PITPNA (UniProt Q00169)
inactive: [1] -0.024 | vorinostat 0.115 | silmitasertib 0.018 | [2] 0.015 | entospletinib 0.003

PIGA (UniProt P37287)
inactive: [1] 0.034 | vorinostat 0.126 | silmitasertib -0.076 | [2] 0 | entospletinib -0.127

Fetched one by one from the entries so far (2):
PHF3 (UniProt Q92576)
inactive: [1] 0.027 | vorinostat 0.015 | silmitasertib -0.01 | [2] 0.012 | entospletinib -0.041

PISD (UniProt Q9UG56)
inactive: [1] -0.031 | vorinostat 0.113 | silmitasertib 0.067 | [2] 0.15 | entospletinib -0.043

Next part:

PHACTR4 isoform 2 (UniProt Q8IZ21)
inactive: [1] 0.025 | vorinostat 0.014 | silmitasertib 0.01 | [2] 0.009 | entospletinib -0.024
